Cleaved PARP in drug-treated melanoma cells

Values as published with doi:10.1371/journal.pone.0140310, rounded.

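Human melanoma cells were exposed to a pair of drugs for 72 h in 1,536-well plates and read by automated microscopy after fixing and staining. Values are the share of nuclei positive for cleaved PARP as a percentage of the same share in the DMSO control: 100 is the control level, higher means more apoptosis. Concentrations were fixed for each drug; these are the higher of two levels. The file gives one value for each pair and line, without errors, so small differences may be noise. Basal and induced levels differ widely between cell lines.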
Only some of the drugs and lines screened are listed, without regard to their results.
A dash means that no value is listed here.

Compounds and concentrations:
OSI-906 (2 µM): C[C@]1(O)C[C@@H](c2nc(-c3ccc4ccc(-c5ccccc5)nc4c3)c3c(N)nccn32)C1
T0901317 (7 µM): O=S(=O)(c1ccccc1)N(CC(F)(F)F)c1ccc(C(O)(C(F)(F)F)C(F)(F)F)cc1
midostaurin (0.4 µM): CO[C@@H]1[C@H](N(C)C(=O)c2ccccc2)C[C@H]2O[C@]1(C)n1c3ccccc3c3c4c(c5c6ccccc6n2c5c31)C(=O)NC4
nutlin-3 (0.5 µM): COc1ccc(C2=N[C@@H](c3ccc(Cl)cc3)[C@@H](c3ccc(Cl)cc3)N2C(=O)N2CCNC(=O)C2)c(OC(C)C)c1
fludarabine (1 µM): Nc1nc(F)nc2c1ncn2[C@@H]1O[C@H](CO)[C@@H](O)[C@@H]1O
SU6656 (2 µM): CN(C)S(=O)(=O)c1ccc2c(c1)/C(=C/c1cc3c([nH]1)CCCC3)C(=O)N2
KU-0063794 (0.1 µM): COc1ccc(-c2ccc3c(N4CCOCC4)nc(N4C[C@@H](C)O[C@@H](C)C4)nc3n2)cc1CO
darinaparsin (2 µM): C[As](C)SC[C@H](NC(=O)CC[C@H](N)C(=O)O)C(=O)NCC(=O)O
crizotinib (1 µM): C[C@@H](Oc1cc(-c2cnn(C3CCNCC3)c2)cnc1N)c1c(Cl)ccc(F)c1Cl
tamatinib (2 µM): COc1cc(Nc2ncc(F)c(Nc3ccc4c(n3)NC(=O)C(C)(C)O4)n2)cc(OC)c1OC

| # | Combination | WM1745 | LB2518-MEL | MEL-HO | SK-MEL-30 | C32 | UACC-257 | G-361 | A375 | COLO 829 | SK-MEL-28 |
|---|---|---|---|---|---|---|---|---|---|---|---|
| 1 | KU-0063794 + midostaurin | 317 | 77.2 | 75.4 | 99.0 | 136 | 22.9 | 62.6 | 98.5 | 250 | 136 |
| 2 | crizotinib + midostaurin | 220 | 336 | 97.5 | 105 | 69.1 | 92.6 | 209 | - | 145 | 544 |
| 3 | crizotinib + fludarabine | 155 | - | 94.3 | 1250 | 155 | 7340 | 96.3 | 283 | 136 | 1530 |
| 4 | darinaparsin + nutlin-3 | 88.8 | 108 | 99.2 | 217 | 294 | 78.0 | 165 | 75.9 | 126 | 97.3 |
| 5 | fludarabine + OSI-906 | 150 | - | 117 | 2230 | 43.5 | 6410 | 169 | 393 | 114 | 1140 |
| 6 | tamatinib + OSI-906 | 444 | 460 | 109 | 180 | 543 | 48.0 | 155 | - | 244 | 113 |
| 7 | T0901317 + nutlin-3 | - | 78.4 | 72.3 | 169 | 193 | 129 | 282 | 144 | 178 | 218 |
| 8 | T0901317 + fludarabine | - | - | 43.7 | 562 | 92.1 | 679 | 130 | 893 | 83.6 | 593 |
| 9 | KU-0063794 + darinaparsin | 109 | - | 53.3 | 46.8 | 91.0 | 66.0 | 118 | 117 | 124 | 58.3 |
| 10 | KU-0063794 + OSI-906 | - | - | 193 | 109 | 96.0 | 97.7 | 429 | 128 | 284 | 98.8 |
| 11 | fludarabine + midostaurin | 367 | 135 | 97.0 | 1070 | 114 | 3990 | 305 | - | 83.4 | 669 |
| 12 | nutlin-3 + crizotinib | 147 | 100 | 25.8 | 174 | 87.0 | 81.9 | 233 | 85.8 | 241 | 133 |
| 13 | fludarabine + SU6656 | 111 | 143 | 131 | 1780 | 125 | 3790 | 355 | - | 93.1 | 1780 |
| 14 | T0901317 + darinaparsin | 115 | 69.9 | 109 | 48.6 | 78.6 | 67.1 | 62.9 | 126 | 268 | 145 |
| 15 | OSI-906 + nutlin-3 | 158 | 232 | 164 | 51.6 | 97.1 | 59.4 | 25.2 | 73.7 | 79.7 | 77.1 |
| 16 | crizotinib + KU-0063794 | - | 126 | 110 | 270 | 100 | 37.1 | 129 | 192 | 113 | 54.1 |
| 17 | crizotinib + SU6656 | 177 | 86.3 | 197 | 128 | 240 | 170 | 204 | - | 189 | 237 |
| 18 | midostaurin + tamatinib | 512 | 754 | 449 | 279 | 470 | 117 | 265 | - | 184 | 179 |
| 19 | darinaparsin + OSI-906 | 158 | 133 | 252 | 71.5 | 138 | 43.7 | 61.4 | 137 | 107 | 123 |
| 20 | darinaparsin + midostaurin | 136 | 185 | 42.3 | 205 | 240 | 175 | 328 | - | 550 | 113 |
| 21 | darinaparsin + crizotinib | 129 | 72.8 | 37.2 | 73.8 | 44.5 | 89.9 | 76.3 | 67.3 | 78.2 | 83.0 |
| 22 | KU-0063794 + tamatinib | 313 | 74.4 | 31.9 | 136 | 118 | 24.7 | 75.9 | 145 | 44.3 | 81.3 |
| 23 | OSI-906 + SU6656 | 438 | 149 | 186 | 223 | 117 | 184 | 125 | - | 161 | 95.9 |
| 24 | T0901317 + midostaurin | 362 | 198 | 139 | 277 | 261 | 106 | 85.1 | 190 | 186 | 289 |
| 25 | T0901317 + tamatinib | 419 | 136 | 121 | 105 | 122 | 106 | 98.7 | 300 | 294 | 48.1 |
| 26 | tamatinib + crizotinib | 245 | - | 130 | 115 | 239 | 96.8 | 149 | - | 120 | 69.5 |
| 27 | OSI-906 + crizotinib | 124 | 230 | 130 | 72.5 | 117 | 48.5 | 149 | 108 | 92.1 | 130 |
| 28 | nutlin-3 + tamatinib | 512 | 118 | 162 | 85.9 | 98.8 | 85.9 | 156 | - | 184 | 182 |
| 29 | nutlin-3 + midostaurin | 250 | 186 | 50.4 | 121 | 410 | 106 | 265 | - | 449 | 46.4 |
| 30 | SU6656 + nutlin-3 | 112 | 64.8 | 64.7 | 54.9 | 58.0 | 44.2 | 89.8 | - | 155 | 36.1 |
| 31 | KU-0063794 + SU6656 | 180 | 115 | 187 | 65.8 | 125 | 85.9 | 25.0 | 95.8 | 86.9 | 109 |
| 32 | fludarabine + nutlin-3 | 103 | 91.0 | 189 | 1960 | 52.0 | 5620 | 133 | 412 | 179 | 777 |
| 33 | midostaurin + SU6656 | 257 | 75.0 | 115 | 121 | 288 | 173 | 538 | - | 166 | 108 |
| 34 | SU6656 + T0901317 | 148 | 41.5 | 110 | 89.6 | 111 | 33.3 | 233 | 69.7 | 205 | 238 |
| 35 | crizotinib + T0901317 | - | 68.8 | 191 | 264 | 75.6 | 42.5 | 98.4 | 124 | 133 | 223 |
| 36 | KU-0063794 + T0901317 | 123 | 95.2 | 57.0 | 138 | 91.3 | 73.5 | 210 | 75.3 | 120 | 123 |
| 37 | darinaparsin + fludarabine | 88.3 | 77.8 | 46.9 | 1850 | 102 | 4590 | 107 | 530 | 165 | 427 |
| 38 | SU6656 + tamatinib | 237 | 77.3 | 195 | 149 | 426 | 181 | 157 | - | 141 | 119 |
| 39 | KU-0063794 + nutlin-3 | - | 99.8 | 48.2 | 96.3 | 196 | 73.5 | 148 | 106 | 68.9 | 81.5 |
| 40 | tamatinib + fludarabine | 173 | 243 | 137 | 565 | 109 | 5520 | 112 | - | 196 | 1360 |

Once more, the final 4:

Combination	WM1745	LB2518-MEL	MEL-HO	SK-MEL-30	C32	UACC-257	G-361	A375	COLO 829	SK-MEL-28
darinaparsin + fludarabine	88.3	77.8	46.9	1850	102	4590	107	530	165	427
SU6656 + tamatinib	237	77.3	195	149	426	181	157	-	141	119
KU-0063794 + nutlin-3	-	99.8	48.2	96.3	196	73.5	148	106	68.9	81.5
tamatinib + fludarabine	173	243	137	565	109	5520	112	-	196	1360